# From the supplement of paper PMC2577665
# ± gives the standard deviation of the averaged measurements. The data scatter; read single values as rough.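 In each well, ERalpha-negative HeLa cells were transfected with ERalpha, a reporter bearing two estrogen response elements, and one overexpressed, poorly characterized human cDNA. Genes reducing signal to the BRCA1 positive control level (roughly 0.6 of empty vector) or below were scored as repressor hits.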
# System: ERE-luciferase reporter with exogenous ERalpha in HeLa cells
# Experiment: relative ERE luciferase activity (Firefly/Renilla) upon cDNA overexpression, relative to empty vector (fold of empty vector); higher = stronger ERalpha transactivation (less repression)
# Settings: 17beta-estradiol: 10 nM; 12 h
row,Substance,relative ERE luciferase activity
1,MAGPLWRTAAFVQRHRTGLLVGSCAGLFGVPISYHLFPDPVVQWLYQYWPQGQPAPLPPQLQSLFQEVLQDIGVPSGHCYKPFTTFTFQPVSAGFPRLPAGAVVGIPASFLGDLVINTNHPVVIHGHTVDWRSPAGARLRASLTLSREAQKFALAREVVYLESSTTAVHALLAPACLAGTWALGVGAKYTLGLHAGPMNLRAAFSLVAAVAGFVAYAFSQDSLTHAVESWLDRRTASLSAAYACGGVEFYEKLLSGNLALRSLLGKDGEKLYTPSGNIVPRHLFRIKHLPYTTRRDSVLQMWRGMLNPGRS [TMEM177],1.04
2,MLSLKLPRLFSIDQIPQVFHEQGILFGYRHPQSSATACILSLFQMTNETLNIWTHLLPFWFFAWRFVTALYMTDIKNDSYSWPMLVYMCTSCVYPLVSSCAHTFSSMSKNARHICYFLDYGAVNLFSLGSAIAYSAYTFPDALMCTTFHDYYVALAVLNTILSTGLSCYSRFLEIQKPRLCKVIRVLAFAYPYTWDSLPIFYRLFLFPGESAQNEATSYHQKHMIMTLLASFLYSAHLPERLAPGRFDYIGHSHQLFHVCVILATHMQMEAILLDKTLRKEWLLATSKPFSFSQIAGAILLCIIFSLSNIIYFSAALYRIPKPELHKKET [PAQR5],1.05
3,MDSSREPTLGRLDAAGFWQVWQRFDADEKGYIEEKELDAFFLHMLMKLGTDDTVMKANLHKVKQQFMTTQDASKDGRIRMKELAGMFLSEDENFLLLFRRENPLDSSVEFMQIWRKYDADSSGFISAAELRNFLRDLFLHHKKAISEAKLEEYTGTMMKIFDRNKDGRLDLNDLARILALQENFLLQFKMDACSTEERKRDFEKIFAYYDVSKTGALEGPEVDGFVKDMMELVQPSISGVDLDKFREILLRHCDVNKDGKIQKSELALCLGLKINP [SCGN],1.07
4,MSFVECPYHSPAERLVAEADEGGPSAITGMGLCFRCLLFSFSGRSGVEGGRVDLNVFGSLGLQPWIGSSRCWGGPCSSALRCGWFSSWPPPSKSAIPIGGGSRGAGRVSRWPPPHWLEAWRVSPLPLSPLSPATFGRGFIAVAVIPGLWARGRGCSSDRLPRPAGPARRQFQAASLLTRGWGRAWPWKQILKELDECYERFSRETDGAQKRRMLHCVQRALIRSQELGDEKIQIVSQMVELVENRTRQVDSHVELFEAQQELGDTAGNSGKAGADRPKGEAAAQADKPNSKRSRRQRNNENRENASSNHDHDDGASGTPKEKKAKTSKKKKRSKAKAEREASPADLPIDPNEPTYCLCNQVSYGEMIGCDNDECPIEWFHFSCVGLNHKPKGKWYCPKCRGENEKTMDKALEKSKKERAYNR [ING1],3
5,MSWLFPLTKSASSSAAGSPGGLTSLQQQKQRLIESLRNSHSSIAEIQKDVEYRLPFTINNLTININILLPPQFPQEKPVISVYPPIRHHLMDKQGVYVTSPLVNNFTMHSDLGKIIQSLLDEFWKNPPVLAPTSTAFPYLYSNPSGMSPYASQGFPFLPPYPPQEANRSITSLSVADTVSSSTTSHTTAKPAAPSFGVLSNLPLPIPTVDASIPTSQNGFGYKMPDVPDAFPELSELSVSQLTDMNEQEEVLLEQFLTLPQLKQIITDKDDLVKSIEELARKNLLLEPSLEAKRQTVLDKYELLTQMKSTFEKKMQRQHELSESCSASALQARLKVAAHEAEEESDNIAEDFLEGKMEIDDFLSSFMEKRTICHCRRAKEEKLQQAIAMHSQFHAPL [VPS37A],1.12 ± 0.053
6,MSSQELVTLNVGGKIFTTRFSTIKQFPASRLARMLDGRDQEFKMVGGQIFVDRDGDLFSFILDFLRTHQLLLPTEFSDYLRLQREALFYELRSLVDLLNPYLLQPRPALVEVHFLSRNTQAFFRVFGSCSKTIEMLTGRITVFTEQPSAPTWNGNFFPPQMTLLPLPPQRPSYHDLVFQCGSDSTTDNQTGVRYVSIKPDNRKLANGTNVLGLLIDTLLKEGFHLVSTRTVSSEDKTECYSFERIKSPEVLITNETPKPETIIIPEQSQIKK [KCNRG],1.16
7,MFGIQDTLGRGPTLKEKSLGAEMDSVRSWVRNVGVVDANVAAQSGVALSRAHFEKQPPSNLRKSNFFHFVLALYDRQGQPVEIERTAFVDFVENDKEQGNEKTNNGTHYKLQLLYSNGVRTEQDLYVRLIDSVTKQPIAYEGQNKNPEMCRVLLTHEVMCSRCCEKKSCGNRNETPSDPVIIDRFFLKFFLKCNQNCLKTAGNPRDMRRFQVVLSTTVNVDGHVLAVSDNMFVHNNSKHGRRARRLDPSEATPCIKAISPSEGWTTGGAMVIIIGDNFFDGLQVVFGTMLVWSELITPHAIRVQTPPRHIPGVVEVTLSYKSKQFCKGAPGRFIYTALNEPTIDYGFQRLQKVIPRHPGDPERLAKEMLLKRAADLVEALYGTPHNNQDIILKRAADIAEALYSVPRNPSQLPALSSSPAHSGMMGINSYGSQLGVSISESTQGNNQGYIRNTSSISPRGYSSSSTPQQSNYSTSSNSMNGYSNVPMANLGVPGSPGFLNGSPTGSPYGIMSSSPTVGSSSTSSILPFSSSVFPAVKQKSAFAPVIRPQGSPSPACSSGNGNGFRAMTGLVVPPM [EBF2],1.04
8,MGKRDNRVAYMNPIAMARWRGPTQSVGPTIQDYLNRPRPTWEEVKKQLENKKTGSKALAEFEEKMNENWKKELEKSREKLLSGNESSSKKRERKKKRKKKSCRSSSSSSSSDSSSSSSDSEDEEKKQGKRRKKKKNRSYKSSQSSTHESESESKESVKKKKKSKDETEKEKDVRSLSKKRKKSYPDDKPLSSESSSESDYEEDVQAKKKRRCEEREQAKEKVKKKKKKQHKKHSKKKKKKSGSSHKSR [FAM133A],1.72
9,MTAWILLPVSLSAFSITGIWTVYAMAVMNHHVCPVENWSYNESCPPDPAEQGGPKTCCTLDDVPLISKCGSYPPESCLFSLIGNMGAFMVALICLLRYGQLLEQSRHSWVNTTALITGCTNAAGLLVVGNFQVDHARSLHYVGAGVAFPAGLLFVCLHCALSYQGATAPLDLAVAYLRSVLAVIAFITLVLSGVFFVHESSQLQHGAALCEWVCVIDILIFYGTFSYEFGAVSSDTLVAALQPTPGRACKSSGSSSTSTHLNCAPESIAMI [TMEM150],1.09
10,MSRIPLGKVLLRNVIRHTDAHNKIQEESDMWKIRELEKQMEDAYRGTKRKMLPSSSSRMRSDGFDEESQRYYWRPKNEISGTLEDDFLKAKSWNKKFYDYEANMPDRWGHSGYKELYPEEFETDSDQQDITNGKKTSPQVKSSTHESRKHKKSKKSHKKKQKKRSHKKQKKSKKEATDITADSSSEFSEETGASGTRKGKQPHKRKKKSRKKSLKKPALFLEAESNTSHSDDSASSSSEESEERDTKKTKRKKREKKAHTSVANNEIQERTNKRTNWKVATDERSAESSEDD [C11orf57],1.94
11,MPGPATDAGKIPFCDAKEEIRAGLESSEGGGGPERPGARGQRQNIVWRNVVLMSLLHLGAVYSLVLIPKAKPLTLLWAYFCFLLAALGVTAGAHRLWSHRSYRAKLPLRIFLAVANSMAFQNDIFEWSRDHRAHHKYSETDADPHNARRGFFFSHIGWLFVRKHRDVIEKGRKLDVTDLLADPVVRIQRKYYKISVVLMCFVVPTLVPWYIWGESLWNSYFLASILRYTISLNISWLVNSAAHMYGNRPYDKHISPRQNPLVALGAIGEGFHNYHHTFPFDYSASEFGLNFNPTTWFIDFMCWLGLATDRKRATKPMIEARKARTGDSSA [SCD5],1.13
12,MDGVTPTLSTIRGRTLESSTLHVTPRSLDRNKDQITNIFSGFAGLLAILLVVAVFCILWNWNKRKKRQVPYLRVTVMPLLTLPQTRQRAKNIYDILPWRQEDLGRHESRSMRIFSTESLLSRNSESPEHVPSQAGNAFQEHTAHIHATEYAVGIYDNAMVPQMCGNLTPSAHCINVRASRDCASISSEDSHDYVNVPTAEEIAETLASTKSPSRNLFVLPSTQKLEFTEERDEGCGDAGDCTSLYSPGAEDSDSLSNGEGSSQISNDYVNMTGLDLSAIQERQLWVAFQCCRDYENVPAADPSGSQQQAEKDVPSSNIGHVEDKTDDPGTHVQCVKRTFLASGDYADFQPFTQSEDSQMKHREEMSNEDSSDYENVLTAKLGGRDSEQGPGTQLLPDE [LAX1],0.823
13,C8orf32,1.11 ± 0.039
14,HMGN3,1.21 ± 0.083
15,MASADSRRVADGGGAGGTFQPYLDTLRQELQQTDPTLLSVVVAVLAVLLTLVFWKLIRSRRSSQRAVLLVGLCDSGKTLLFVRLLTGLYRDTQTSITDSCAVYRVNNNRGNSLTLIDLPGHESLRLQFLERFKSSARAIVFVVDSAAFQREVKDVAEFLYQVLIDSMGLKNTPSFLIACNKQDIAMAKSAKLIQQQLEKELNTLRVTRSAAPSTLDSSSTAPAQLGKKGKEFEFSQLPLKVEFLECSAKGGRGDVGSADIQDLEKWLAKIA [SRPRB],1.14
16,MRSGEELDGFEGEASSTSMISGASSPYQPTTEPVSQRRGLAGLRCDPDYLRGALGRLKVAQVILALIAFICIETIMACSPCEGLYFFEFVSCSAFVVTGVLLIMFSLNLHMRIPQINWNLTDLVNTGLSAFLFFIASIVLAALNHRAGAEIAAVIFGFLATAAYAVNTFLAVQKWRVSVRQQSTNDYIRARTESRDVDSRPEIQRLDTFSYSTNVTVRKKSPTNLLSLNHWQLA [CMTM4],1.16
17,MGKTFSQLGSWREDENKSILSSKPAIGSKAVNYSSTGSSKSFCSCVPCEGTADASFVTCPTCQGSGKIPQELEKQLVALIPYGDQRLKPKHTKLFVFLAVLICLVTSSFIVFFLFPRSVIVQPAGLNSSTVAFDEADIYLNITNILNISNGNYYPIMVTQLTLEVLHLSLVVGQVSNNLLLHIGPLASEQMFYAVATKIRDENTYKICTWLEIKVHHVLLHIQGTLTCSYLSHSEQLVFQSYEYVDCRGNASVPHQLTPHPP [TMEM106A],1.05
18,MFVELNNLLNTTPDRAEQGKLTLLCDAKTDGSFLVHHFLSFYLKANCKVCFVALIQSFSHYSIVGQKLGVSLTMARERGQLVFLEGLKSAVDVVFQAQKEPHPLQFLREANAGNLKPLFEFVREALKPVDSGEARWTYPVLLVDDLSVLLSLGMGAVAVLDFIHYCRATVCWELKGNMVVLVHDSGDAEDEENDILLNGLSHQSHLILRAEGLATGFCRDVHGQLRILWRRPSQPAVHRDQSFTYQYKIQDKSVSFFAKGMSPAVL [TMEM103],1.27
19,MKGFIDDANYSVGLLDEGTNLGNVIDNYVYEHTLTGKNAFFVGDLGKIVKKHSQWQNVVAQIKPFYTVKCNSAPAVLEILAALGTGFACSSKNEMALVQELGVPPENIIYISPCKQVSQIKYAAKVGVNILTCDNEIELKKIARNHPNAKVLLHIATEDNIGGEEGNMKFGTTLKNCRHLLECAKELDVQIIGVKFHVSSACKESQVYVHALSDARCVFDMAGEIGFTMNMLDIGGGFTGTEFQLEEVNHVISPLLDIYFPEGSGVKIISEPGSYYVSSAFTLAVNIIAKKVVENDKFPSGVEKTGSDEPAFMYYMNDGVYGSFASKLSEDLNTIPEVHKKYKEDEPLFTSSLWGPSCDELDQIVESCLLPELNVGDWLIFDNMGADSFHEPSAFNDFQRPAIYYMMSFSDWYEMQDAGITSDSMMKNFFFVPSCIQLSQEDSFSAEA [AZIN1],1.12
20,ZNF383,1.09
21,MTSLPCPLPGRDASKAVFPDLAPVPSVAAAYPLGLSPTTAASPNLSYSRPYGHLLSYPYTEPANPGDSYLSCQQPAALSQPLCGPAEHPQELEADSEKPRLSPEPSERRPQAPAKKLRKPRTIYSSLQLQHLNQRFQHTQYLALPERAQLAAQLGLTQTQVKIWFQNKRSKYKKLLKQNSGGQEGDFPGRTFSVSPCSPPLPSLWDLPKAGTLPTSGYGNSFGAWYQHHSSDVLASPQMM [DLX4],2.5
22,MRLPLSHSPEHVEMALLSNILAAYSFVSENPERAALYFVSGVCIGLVLTLAALVIRISCHTDCRRRPGKKFLQDRESSSDSSDSEDGSEDTVSDLSVRRHRRFERTLNKNVFTSAEELERAQRLEERERIIREIWMNGQPEVPGTRSLNRYY [TMEM166],3.26
